# Source: PubChem BioAssay AID2417 (National Center for Advancing Translational Sciences (NCATS), 2010)
# In all, about 140,000 compounds went through this assay and about 4,300 (3.1%) were called active. The shares of active, inactive and inconclusive entries below differ from those in the screen.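 The calls were made as follows: active = readout at or below -70, meaning at least 70% loss of cells showing the perinucleolar compartment, a nuclear body marking cancer cells; inconclusive = readout between -30 and a set limit; inactive = the rest.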
# Test: High Content Assay for Compounds that inhibit the Assembly of the Perinucleolar Compartment;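 also: plate controls were DMSO wells for no effect and camptothecin positive control wells for full effect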
# Conditions: PC3M PTB-GFP, PNC prevalence imaging, 16 h; at 10 µM; hits give low values
# How it was run: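 Compounds are pinned in duplicate onto adhered PC3M cells stably expressing GFP-tagged PTB and incubated 16 h at 37 C. Cells are then fixed, nuclei stained with Hoechst, and PNC-positive cells counted.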
row,Structure (SMILES),"activity change (PNC), negative = inhibition"
1,CC(=O)N1CC=CC1(C)C(=O)NCc1cc(F)cc(C(F)(F)F)c1 (configuration not stated),inactive: 8.84%
2,CCOC(=O)C1CCN(CC(=O)N2C(C)CCCC2C)CC1 (configuration not stated),inactive: -6.9%
3,Cc1ccc(C)n1-c1sc2c(c1C(=O)O)CCCC2,inactive: 23.7%
4,COc1ccc(-n2nc3cc(C)c(N)c(Br)c3n2)cc1,inconclusive: -33.8%
5,COc1cnn(-c2ccccc2)c(=O)c1SCc1ccc(Cl)cc1Cl,inconclusive: -43.1%
6,CCOC(=O)c1c(NC(=O)CCC(=O)O)sc2c1CCCCC2,inconclusive: -33.9%
7,O=C(NCc1ccncc1)c1ccc(Br)cc1,inconclusive: -57.6%
8,O=C(N/N=C\c1ccc(-c2ccccc2[N+](=O)[O-])o1)C1COc2cc3ccccc3cc2O1 (configuration not stated),inconclusive: -69.4%
9,Cc1ccc(S(=O)(=O)N2CCN(C(=O)c3nn(C(C)C)c(=O)c4ccccc34)CC2)cc1C,inconclusive: -38.4%
10,C=CCc1c(OC)ccc2ccc(=O)oc12,inactive: 35.4%
11,Cc1ccc2[nH]c3c(N4CCCCCC4)ncnc3c2c1,inconclusive: -78.3%
12,CCOC(=O)C1=C(C)S/C(=C\N(C)C)C1=O,inconclusive: -69.2%
13,Nc1nc(NCc2c(F)cccc2Cl)nn1-c1ccccc1,inconclusive: -56.7%
14,CC1(C)Cc2ccccc2-c2nnnn21,inconclusive: -71.6%
15,O=C1CC(c2ccccc2)n2nc(NC(=O)c3ccccn3)nc2N1 (configuration not stated),inconclusive: -46.6%
16,CC(C)(C)C1CCc2onc(C(=O)NCc3ccc(F)cc3)c2C1 (configuration not stated),inconclusive: -32.1%
17,CC(=O)NC(=S)Nc1ccc(NC(=O)COc2ccc(C(C)C)cc2)cc1,inactive: 5.78%
18,CN1C(=O)CCC1(O)c1ccccc1 (configuration not stated),inconclusive: -34.9%
19,CCOC(=O)c1nn(-c2cccc(C)c2)c2nc(-c3ccccc3)c(C#N)c(=O)n12,active: -117%
20,COc1ccccc1OC(=O)c1ccc2nsnc2c1,active: -81.1%
21,Cc1nc2ccc(F)cc2cc1C(=O)NCc1ccco1,inconclusive: -33.9%
22,CCSc1nnc(NC(=O)CSc2nc3c(cc2C#N)CCCC3)s1,inactive: 60.6%
23,O=S(=O)(c1cc(Cl)ccc1Cl)N1CC2CCCN2c2ccc(C(F)(F)F)cc21 (configuration not stated),inconclusive: -56.5%

row,Structure (SMILES),"activity change (PNC), negative = inhibition"
1,CCN1CCN(C(=O)C2(NC(=O)Nc3cccc(F)c3)CCCCC2)CC1,active: -83.6%
2,CCCOc1ccc(/C(O)=C2/C(=O)C(=O)N(CCCOC)C2c2cccnc2)cc1 (configuration not stated),inactive: -0.749%
3,CC(C)NC(=O)CC(c1ccccc1)c1cc(Br)ccc1O (configuration not stated),inconclusive: -39.1%
4,O=C(Cc1n[nH]c(=O)[nH]c1=O)N/N=C/c1cccc(O)c1,inconclusive: -46.4%
5,Cc1ccc(C)c(CSc2nc3ccncc3n2CC(=O)Nc2ccc(C)c(C)c2)c1,inconclusive: -51.2%
6,Cc1ccc(C)n1-c1ccc(C(=O)O)cc1,inactive: -3.99%
7,CC(C)(C)C1CCC(=NNc2ccc(S(N)(=O)=O)cc2[N+](=O)[O-])CC1 (configuration not stated),inactive: -18.5%
8,Cc1nnc(NC(=O)c2ccccc2F)s1,inconclusive: -49.5%
9,N#C/C(=C/c1ccc(OCc2ccccc2)cc1)C(=O)NC1CCCCC1,inconclusive: -49.2%
10,CC(NC(=O)CSc1nnc(-c2cccc(S(=O)(=O)N3CCCCC3)c2)o1)C12CC3CC(CC(C3)C1)C2 (configuration not stated),inactive: 12.6%
11,Cc1ccccc1NC(=O)c1cn(-c2ccccc2)nc1-c1ccccc1,inconclusive: -38.5%
12,CC1(NC(=O)C23CC4CC(CC(C4)C2)C3)CCS(=O)(=O)C1 (configuration not stated),inconclusive: -45.1%
13,CC12CCC(C(=O)N(CSC(=S)N/N=C\c3ccccc3)C1=O)C2(C)C (configuration not stated),inconclusive: -63.7%
14,CCCc1cc(C(=O)Nc2sc3c(c2C#N)CCC3)no1,inactive: 39.6%
15,CCC(CC)C(=O)N1CCN(c2cccc(C)c2C)CC1,inactive: -15.3%
16,O=C(c1ccccc1)N1CCc2ccccc21,inactive: -0.362%
17,c1ccc2c(Cn3ccnc3)c[nH]c2c1,inconclusive: -51.3%
18,C=CCn1c(SCC(=O)c2ccccc2)nnc1-c1cc2ccccc2o1,inconclusive: -52.7%
19,CC(C(=O)NCCC1=CCCCC1)N1C(=O)c2ccccc2C1=O (configuration not stated),inactive: 27.5%
20,COc1ccc(C(=O)NNC(=S)NC(=O)c2ccccc2[N+](=O)[O-])cc1,inactive: -4%
21,CCc1c(C)nc2ncnn2c1NCCc1ccc(OC)cc1,inconclusive: -31%
22,Cc1ccc2c(NC(=O)C3CC3)cccc2n1,inconclusive: -44.4%
23,CCCNC(=O)NC(=O)COC(=O)c1cccc(NS(=O)(=O)c2ccc(F)c(F)c2)c1,inconclusive: -69.4%

row,Structure (SMILES),"activity change (PNC), negative = inhibition"
1,Cc1cccc(C)c1NC(=O)COC(=O)c1cccc2c1C(=O)c1ccccc1C2=O,inconclusive: -72%
2,O=C(NN1C(=O)c2ccccc2C1=O)C1C2CCCCC21 (configuration not stated),inactive: 26.8%
3,Cc1ccc2nc(-c3ccc(N4C(=O)CC(N5CCN(CCO)CC5)C4=O)cc3)sc2c1 (configuration not stated),inconclusive: -36.6%
4,O=C1c2ccccc2NC(c2ccco2)N1O (configuration not stated),inconclusive: -32.7%
5,Nc1nonc1C(=O)NCCNS(=O)(=O)c1ccc(Br)cc1,active: -89.9%
6,CCN(CC)S(=O)(=O)c1ccc2nc(COC(=O)c3n[nH]c4ccccc34)[nH]c2c1,inconclusive: -60%
7,COc1ccc(OC)c(S(=O)(=O)NCc2cn3c(C)csc3n2)c1,inactive: -11.8%
8,O=C(O)c1cc(Nc2nc(N3CCOCC3)nc(N3CCOCC3)n2)ccc1Cl,inactive: -14.9%
9,Cc1ccc(NC(=O)CSCC(=O)N2CCOCC2)cc1,inconclusive: -42.5%
10,COc1ccc(Cl)cc1-c1nc(N)nc(N(C)C)n1,inconclusive: -59.9%
11,O=C(NCCN1C(=O)S/C(=C\c2ccc(F)cc2)C1=O)c1cccc(S(=O)(=O)N2CCOCC2)c1,inactive: -10%
12,Cc1ccc(C(=O)NNC(=S)Nc2cccc3ccccc23)s1,inconclusive: -52.7%
13,C#CCOCCOCCOCCNc1nc(N2CCOCC2)nc(N2CCN(C(=O)Cn3cc(CC(C)O)nn3)CC2)n1 (configuration not stated),inactive: 16%
14,CCCCC(=O)NC(NC(=S)N1CCOCC1)C(Cl)(Cl)Cl (configuration not stated),inconclusive: -44.3%
15,O=C(COC(=O)CC(NC(=O)c1ccccc1Cl)c1ccccc1)Nc1cccc(F)c1 (configuration not stated),inconclusive: -51.7%
16,Cc1ccc(S(=O)(=O)NNC(=O)c2sc3nc(C)cc(C)c3c2-n2cccc2)cc1,active: -89.7%
17,CCCCn1nc2cc(C(=O)NC[C@@H]3CCCO3)ccc2c1OCC,inconclusive: -65.9%
18,CC(C)CNC(=O)c1ccccc1NC(=O)/C=C/c1cccc([N+](=O)[O-])c1,inactive: 78%
19,O=C(/C=C/c1ccc(F)cc1)NCCc1ccc2c(c1)OCCO2,inconclusive: -43%
20,O=C1C2C(C(=O)N1/N=C/c1ccco1)C1C=CC2C12CC2 (configuration not stated),inactive: 26.7%
21,CC1CCN(c2nc(-c3ccncc3)nc3ccccc23)CC1,inconclusive: -38.8%
22,COc1cc2cc(C(c3nnnn3C3CCCC3)N3CCCCCC3)c(=O)[nH]c2cc1OC (configuration not stated),inconclusive: -35.3%
23,CCCCN1C(=O)c2ccc(C(=O)Nc3ccc(C)c(S(=O)(=O)N(C)C)c3)cc2C1=O,inconclusive: -33.8%

# Pulled by structure from the list above (3):
row,Structure (SMILES),"activity change (PNC), negative = inhibition"
13,CC12CCC(C(=O)N(CSC(=S)N/N=C\c3ccccc3)C1=O)C2(C)C (configuration not stated),inconclusive: -63.7%
14,CCCCC(=O)NC(NC(=S)N1CCOCC1)C(Cl)(Cl)Cl (configuration not stated),inconclusive: -44.3%
14,CC1(C)Cc2ccccc2-c2nnnn21,inconclusive: -71.6%

# Next part.

row,Structure (SMILES),"activity change (PNC), negative = inhibition"
1,Cc1ccccc1Nc1c(N)c(=O)oc2ccccc12,inconclusive: -50.1%
2,CN1c2ccccc2C(C)(C)C12CCCC(=O)N2 (configuration not stated),inconclusive: -42.7%
3,Cc1c(C(=O)NCC2CCCO2)oc2ccc(S(=O)(=O)N3CCCCC3)cc12 (configuration not stated),inconclusive: -47.5%
4,O=C(CN(CC1CCCO1)C(=O)CCC(=O)Nc1ccccn1)NCc1ccccc1 (configuration not stated),active: -100%
5,CCCNc1c(NC(C)=O)c(=O)oc2ccccc12,inactive: 3.01%
6,Cc1cc(-c2n[nH]c(=S)n2/N=C/c2cc([N+](=O)[O-])ccc2Cl)n[nH]1,inactive: 11.2%
7,COc1ccc(CCN2CCCn3c2nc2c3c(=O)n(Cc3ccccc3F)c(=O)n2C)cc1OC,inactive: 12.1%
8,Cn1c(N)c(C(=O)CSc2ccccn2)c(=O)n(C)c1=O,inconclusive: -57.3%
9,C[C@@H](C(=O)OCC(=O)Nc1cc(S(=O)(=O)N2CCOCC2)ccc1Cl)N1C(=O)C2CCCCC2C1=O (some centres not stated),inconclusive: -33.2%
10,Cc1onc(-c2ccccc2Cl)c1C(=O)N1CCN(c2nc3ccccc3s2)CC1,active: -113%
11,Cc1ccc(/C=C(\C#N)c2nc3ccccc3[nH]2)s1,inconclusive: -36.5%
12,CCOC(=O)c1c(C)nc2c(c(SC)nn2-c2ccccc2)c1N,inactive: 20.8%
13,COc1ccccc1NC(=S)NCCN1CCOCC1,inconclusive: -57.3%
14,O=C(CSc1ncccn1)NCc1ccccc1Cl,inconclusive: -62.8%
15,CCOC(=O)N1CCC(N2C(=O)c3ccccc3C2Nc2ccccc2C)CC1 (configuration not stated),inconclusive: -37.9%
16,CSc1nc(NC(C)C)nc(N2CCOCC2)n1,inconclusive: -36.3%
17,CCn1c(CSc2nc3ccccc3s2)n[nH]c1=S,inactive: 35.4%
18,COc1ccc(CCC(=O)Nc2ccc(Br)cn2)cc1,inconclusive: -37%
19,CCCN(CCC)C(=O)c1cc(-c2ccc3c(c2)OCO3)nc2ccccc12,inconclusive: -51.7%
20,CCCC(=O)Nc1ccc(S(=O)(=O)N2CCOCC2)cc1,inconclusive: -51.1%
21,CCC(C(=O)Nc1cnccn1)c1ccccc1 (configuration not stated),inconclusive: -46.4%
22,O=C(O)/C=C/C(=O)Nc1cccc(C(F)(F)F)c1,inconclusive: -60.3%
23,CC(/C=N/NC(=O)c1c(Br)cnn1C)=C\c1ccccc1,inconclusive: -53.5%

# For reference, 2 of the compounds above:
row,Structure (SMILES),"activity change (PNC), negative = inhibition"
15,CCOC(=O)N1CCC(N2C(=O)c3ccccc3C2Nc2ccccc2C)CC1 (configuration not stated),inconclusive: -37.9%
16,CSc1nc(NC(C)C)nc(N2CCOCC2)n1,inconclusive: -36.3%
